From the supplement of paper PMC12889115
The list shows a part of the results. Values are raw readings; no control value is given beside them.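 In the initial screen, polymyxin B was used at a concentration that permeabilizes Salmonella's outer membrane but not its inner membrane. Maximum growth was set by DMSO wells with or without polymyxin B. Since plates varied, data were ranked per plate, and compounds giving the lowest OD600 advanced as hits.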

Test system: Salmonella enterica serovar Typhimurium SL1344
Experiment: bacterial growth OD600 after 18 h with compound and polymyxin B; higher = more bacterial growth (less inhibition)
Conditions: 50 µM, Mueller-Hinton broth

Row | Compound | bacterial growth OD600 (polymyxin B 1 µg/mL) | bacterial growth OD600 (polymyxin B 0.75 µg/mL)
1 | CN(CC1CCCN(CCc2ccccc2F)C1)C(=O)c1cccc(F)c1 (stereo not drawn) | 0.874 | –
2 | CCOc1cc(CN2CCC3(CC2)CC3C(=O)NCc2cccc(C(F)(F)F)c2)ccc1O (stereo not drawn) | – | 0.842
3 | COc1ccc(-c2nn(-c3ccccc3F)cc2CN2CCSCC2)cc1 | 0.606 | –
4 | O=C(NCc1ccccc1Cl)c1cccc(OC2CCN(C(=O)C3CC3)CC2)c1 | 0.724 | –
5 | Cc1nc2ccccc2n1Cc1cc(C(=O)N(C)Cc2ccon2)no1 | 1.12 | –
6 | Cn1nccc1C(=O)NCc1cccnc1N1CCOCC1 | 0.976 | –
7 | CO[C@H]1[C@H](NC(=O)C(C)C)c2ccccc2C12CCN(C(=O)c1ccc(C)s1)CC2 | – | 0.829
8 | COc1ccc(CN2CCCC(CO)(Cc3ccc(F)cc3)C2)cc1 (stereo not drawn) | – | 0.736
9 | CCCCC1CN(CCC(=O)NCCCOc2cccnc2)Cc2ccccc2O1 (stereo not drawn) | – | 0.824
10 | O=C(CCn1cncn1)N1CCCC(CNC(=O)C2(c3ccc(Cl)cc3)CC2)C1 (stereo not drawn) | 0.796 | –
11 | CC(C)CN(C)CC1CCCN(CCc2ccc(F)cc2)C1 (stereo not drawn) | 0.863 | –
12 | COc1ccccc1C(=O)N[C@@H]1c2ccccc2C2(CCN(Cc3cc(F)cc(F)c3)CC2)[C@H]1OC | – | 0.233
13 | O=C(c1cnc2ccccn2c1=O)N1CCOc2ccc(CN3CCc4ccccc4C3)cc2C1 | – | 0.762
14 | CCc1ccc(CN2CCCC(CCC(=O)Nc3ccc(OC)cc3C)C2)o1 (stereo not drawn) | 0.892 | –
15 | CC(=O)c1cccc(OCc2cc(C(=O)N3CCCC3c3ccccn3)n[nH]2)c1 (stereo not drawn) | 0.844 | –
16 | Cc1ccccc1-n1cc(CN(C)Cc2nc(-c3ccccc3)no2)cn1 | 0.562 | –
17 | Cc1cc(NCc2cccnc2Oc2ccc(F)c(F)c2)nc(N)n1 | – | 0.85

Row | Compound | bacterial growth OD600 (polymyxin B 1 µg/mL) | bacterial growth OD600 (polymyxin B 0.75 µg/mL)
18 | COc1ccc(N2C(=O)CN(C(=O)c3ccoc3C)CC23CCCC3)cc1 | – | 0.788
19 | COc1cc(C(=O)N2CCCC(Nc3ccc(F)c(F)c3)C2)ccc1C (stereo not drawn) | 0.572 | –
20 | COCCN1CCC(CN(CC2CCCO2)C(=O)Cc2cc(OC)ccc2OC)CC1 (stereo not drawn) | 0.89 | –
21 | CC(Cc1cccs1)NC(=O)Cn1cc(NC(=O)CCOc2ccccc2)cn1 (stereo not drawn) | – | 0.799
22 | COc1cc(CNCc2cccnc2Oc2ccccc2C)cc2c1OCO2 | 0.871 | –
23 | OCC1(CCc2ccccc2)CCCN(Cc2cccc3cccnc23)C1 (stereo not drawn) | – | 0.76
24 | C=CCN(CC=C)C(=O)c1ccc(OC2CCN(S(=O)(=O)N(C)C)CC2)cc1 | 0.881 | –
25 | COc1ccc2c(c1)C=C(CNCc1cccnc1N1CCN(C(C)=O)CC1)CO2 | – | 0.826
26 | O=C(CC1c2ccccc2CCc2ccccc21)N1CCCC1c1nccs1 (stereo not drawn) | – | 0.006
27 | CC(C)CC(=O)Nc1ccnn1C1CCN(Cc2ccc3cccc(F)c3n2)CC1 | – | 0.786
28 | O=C(C1CCOCC1)N1CCCC(CCc2cccc(C(F)(F)F)c2)C1 (stereo not drawn) | – | 0.355
29 | O=C(NC1CC(=O)N(Cc2cccc(F)c2)C1)c1ccncc1 (stereo not drawn) | 1.12 | –
30 | CC1(C)Cc2c(cnn2-c2ccccc2)C(NC(=O)c2ccncc2)C1 (stereo not drawn) | – | 0.778
31 | CSc1ncc(CNCc2cccnc2Oc2ccc(F)cc2F)cn1 | 1.29 | –
32 | Cc1nc(N2CCCC(NCc3ccccc3)CC2)nc2ccc(F)cc12 (stereo not drawn) | – | 0.792
33 | Cn1cc(CN2CCOC(CCCc3ccccc3)C2)cn1 (stereo not drawn) | – | 0.796

Part of the list above in order of formula weight, ascending.
Row | Compound | bacterial growth OD600 (polymyxin B 1 µg/mL) | bacterial growth OD600 (polymyxin B 0.75 µg/mL)
30 | CC1(C)Cc2c(cnn2-c2ccccc2)C(NC(=O)c2ccncc2)C1 (stereo not drawn) | – | 0.778
22 | COc1cc(CNCc2cccnc2Oc2ccccc2C)cc2c1OCO2 | 0.871 | –
27 | CC(C)CC(=O)Nc1ccnn1C1CCN(Cc2ccc3cccc(F)c3n2)CC1 | – | 0.786
